Experimental data taken from PMC7312952.

Molecular target: OsPYL/RCAR7-GFP (rice (Oryza sativa cv. Dongjin))
Assay: co-IP; rice protoplasts co-transformed; extracts on GFP-trap beads, 4 °C, 2 h; 150 mM NaCl, 50 mM Tris-HCl pH 7.5, 1 mM EDTA, 2 mM EGTA, 2 mM MgCl2, 0.5% NP40, 0.5% Triton X-100; OsPYL/RCAR7-GFP precipitated, OsPP2C51 detected with anti-HA; without and with ABA

B1: OsPP2C51 with 3xHA tag (enzyme, UniProt Q65XK7 1-381)
chain: MRETGATDEGHACEVVVAGGDGKAAAARRRRRLELRRLGLAAEDDAAAKRIRSVKDGSSSDDSSTEVVPRSWPACVSHGSVSVIGRRREMEDAVAIERTFMASTGDGAGAIRGGGEGEEDFFAVYDGHGGSRVAEACRKRMHVVLAEEVSLRRLRGQSASGGDVRWKEAMLASFARMDGEVVGSVAAAAPRVDGTEPSGFRTVGSTAVVAVVGRRRIVVANCGDSRAVLSRGGVALPLSTDHKPDRPDELERVEAAGGRVINWNGYRVLGVLATSRSIGDYYLKPFVSAEPEVRVVERTDKDEFLILASDGLWDVVSNEVACKIARNCLNGRAASMFPESVSGSSAADAAALLAELAVSRGSRDNISVVVVELRRLKSRAA
Question: How did the binding turn out when B1 was run?
Answer: binds

No constants are given. Whether binding was seen depends on the method and setting. In cells and extracts the contact can be indirect. Binding can be weak; no strength is given. Tags and fused reporters may be left off the sequences shown.
